Data published in PMC10529574.
No constants are given. Whether binding was seen depends on the method and setting. Binding seen in cells or lysates may run through a third protein. Some results given as binding are weak or reduced against the parent protein; the word gives no strength.

The chains behind the UniProt entries cited, without tags or fusion partners.
UniProt P38159: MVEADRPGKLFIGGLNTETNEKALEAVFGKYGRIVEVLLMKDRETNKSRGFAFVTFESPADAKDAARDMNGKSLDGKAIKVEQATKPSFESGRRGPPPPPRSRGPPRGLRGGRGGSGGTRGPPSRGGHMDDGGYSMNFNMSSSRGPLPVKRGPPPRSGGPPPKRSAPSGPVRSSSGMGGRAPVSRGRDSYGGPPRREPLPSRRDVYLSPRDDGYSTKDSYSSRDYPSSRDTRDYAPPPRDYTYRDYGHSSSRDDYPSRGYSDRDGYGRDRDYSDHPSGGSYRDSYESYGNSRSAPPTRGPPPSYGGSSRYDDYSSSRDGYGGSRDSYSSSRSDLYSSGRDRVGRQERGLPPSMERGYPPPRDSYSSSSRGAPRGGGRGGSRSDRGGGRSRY

Molecular target: GFP-tagged RBMX (RNA binding motif protein encoded on the X chromosome) (UniProt P38159)
Assay: co-IP; anti-GFP antibody precipitates ectopically expressed GFP-tagged RBMX from 293T cells in RNase-free condition; endogenous ZCCHC8 detected by western blot in half of the eluate

- binding: binds
B1: ZCCHC8 (nuclear exosome targeting protein) (protein, UniProt Q6NZY4 1-707)
chain: MAAEVYFGDLELFEPFDHPEESIPKPVHTRFKDDDGDEEDENGVGDAELRERLRQCEETIEQLRAENQELKRKLNILTRPSGILVNDTKLDGPILQILFMNNAISKQYHQEIEEFVSNLVKRFEEQQKNDVEKTSFNLLPQPSSIVLEEDHKVEESCAIKNNKEAFSVVGSVLYFTNFCLDKLGQPLLNENPQLSEGWEIPKYHQVFSHIVSLEGQEIQVKAKRPKPHCFNCGSEEHQMKDCPMPRNAARISEKRKEYMDACGEANNQNFQQRYHAEEVEERFGRFKPGVISEELQDALGVTDKSLPPFIYRMRQLGYPPGWLKEAELENSGLALYDGKDGTDGETEVGEIQQNKSVTYDLSKLVNYPGFNISTPRGIPDEWRIFGSIPMQACQQKDVFANYLTSNFQAPGVKSGNKRSSSHSSPGSPKKQKNESNSAGSPADMELDSDMEVPHGSQSSESFQFQPPLPPDTPPLPRGTPPPVFTPPLPKGTPPLTPSDSPQTRTASGAVDEDALTLEELEEQQRRIWAALEQAESVNSDSDVPVDTPLTGNSVASSPCPNELDLPVPEGKTSEKQTLDEPEVPEIFTKKSEAGHASSPDSEVTSLCQKEKAELAPVNTEGALLDNGSVVPNCDISNGGSQKLFPADTSPSTATKIHSPIPDMSKFATGITPFEFENMAESTGMYLRIRSLLKNSPRNQQKNKKASE
